Results are given in words; binding and its absence hold for the method and conditions named. Binding seen in cells or lysates may run through a third protein. These calls come from enrichment with a bait or labelling near it, and not all partners need be listed. Where a sequence is shown, tags or fusion partners need not be part of it.
Target: T1, FLAG-tagged SENP1 (UniProt Q9P0U3)
T1 sequence: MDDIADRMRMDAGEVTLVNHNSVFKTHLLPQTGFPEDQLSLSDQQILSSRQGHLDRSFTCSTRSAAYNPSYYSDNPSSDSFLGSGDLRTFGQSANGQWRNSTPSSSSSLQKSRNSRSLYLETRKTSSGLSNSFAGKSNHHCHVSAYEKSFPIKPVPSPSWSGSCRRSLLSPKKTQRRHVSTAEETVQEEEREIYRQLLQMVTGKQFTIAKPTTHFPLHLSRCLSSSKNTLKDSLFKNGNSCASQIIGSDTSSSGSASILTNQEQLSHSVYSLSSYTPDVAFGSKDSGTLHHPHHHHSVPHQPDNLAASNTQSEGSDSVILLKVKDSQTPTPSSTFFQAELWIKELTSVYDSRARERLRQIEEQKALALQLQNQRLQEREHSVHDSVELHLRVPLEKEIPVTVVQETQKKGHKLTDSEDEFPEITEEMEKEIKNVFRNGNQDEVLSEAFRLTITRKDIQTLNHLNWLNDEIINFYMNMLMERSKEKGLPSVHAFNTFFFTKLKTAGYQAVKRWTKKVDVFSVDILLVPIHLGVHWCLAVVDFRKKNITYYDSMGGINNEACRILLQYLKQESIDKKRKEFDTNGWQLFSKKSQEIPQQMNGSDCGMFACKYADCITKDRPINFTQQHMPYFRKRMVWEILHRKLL
Experiment: affinity purification with mass spectrometry; FLAG-tagged SENP1 overexpressed in HEK293T cells; SENP1 complex immunoprecipitated by FLAG, silver staining, mass spectrometry

Amino acid sequences for entries named in this document (tags omitted).
UniProt Q06413: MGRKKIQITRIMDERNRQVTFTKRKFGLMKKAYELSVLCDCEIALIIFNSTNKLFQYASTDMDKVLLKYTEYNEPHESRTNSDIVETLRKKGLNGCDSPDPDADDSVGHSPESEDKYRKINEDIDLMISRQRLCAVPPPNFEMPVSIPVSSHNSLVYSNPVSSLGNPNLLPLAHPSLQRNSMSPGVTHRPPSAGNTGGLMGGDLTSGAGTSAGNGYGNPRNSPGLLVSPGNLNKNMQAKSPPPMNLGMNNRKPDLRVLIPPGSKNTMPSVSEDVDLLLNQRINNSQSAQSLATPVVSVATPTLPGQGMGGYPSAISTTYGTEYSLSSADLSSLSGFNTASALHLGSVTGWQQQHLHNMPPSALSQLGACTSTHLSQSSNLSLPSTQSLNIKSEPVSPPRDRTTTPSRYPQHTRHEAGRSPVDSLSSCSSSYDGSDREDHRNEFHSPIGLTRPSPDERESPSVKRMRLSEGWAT

## MEF2C (from UniProt Q06413 1-473)
  binding: binds

From article PMC12059206
